The list shows a part of the results.
Compound: Cc1cc(Nc2cc(CN3CCOCC3)c3nc(C)c(Cc4ccc(Cl)cc4F)n3n2)n[nH]1 [gandotinib]
Assay: log2 fold change, soluble protein after heating vs DMSO (PISA); higher = thermal stabilisation; K562 cells, 10 uM, 30 min; active = over 0.2 and 3.5 SD of the protein, either way, in both replicates (recomputed)
Outline: (§1)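 Soluble protein was quantified by TMTpro 16plex LC-MS/MS after channel sums were equalised. It was obtained as the supernatant after 21,000xg for 90 min from pooled aliquots of K562 cells (2×10^6 cells/mL, 10 μM compound, 30 min) heated for 3 min across 48°C-58°C and extracted in PBS with 0.5% NP-40 at 4°C. Thermal stability values are relative to control samples and come from duplicates. They are given as log2 fold changes.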

Amino acid sequences for entries named in this document (tags omitted). A change or cut given only in a name is not applied to a line headed by its entry.
UniProt Q86VI4: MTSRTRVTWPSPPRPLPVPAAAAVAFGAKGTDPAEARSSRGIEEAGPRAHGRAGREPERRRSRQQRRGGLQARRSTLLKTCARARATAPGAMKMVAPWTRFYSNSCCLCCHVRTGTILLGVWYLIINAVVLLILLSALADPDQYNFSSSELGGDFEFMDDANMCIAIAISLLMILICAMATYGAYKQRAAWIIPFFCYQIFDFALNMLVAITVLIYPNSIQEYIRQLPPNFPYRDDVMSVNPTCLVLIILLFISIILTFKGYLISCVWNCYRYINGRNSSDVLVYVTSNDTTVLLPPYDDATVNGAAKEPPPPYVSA
UniProt Q07954: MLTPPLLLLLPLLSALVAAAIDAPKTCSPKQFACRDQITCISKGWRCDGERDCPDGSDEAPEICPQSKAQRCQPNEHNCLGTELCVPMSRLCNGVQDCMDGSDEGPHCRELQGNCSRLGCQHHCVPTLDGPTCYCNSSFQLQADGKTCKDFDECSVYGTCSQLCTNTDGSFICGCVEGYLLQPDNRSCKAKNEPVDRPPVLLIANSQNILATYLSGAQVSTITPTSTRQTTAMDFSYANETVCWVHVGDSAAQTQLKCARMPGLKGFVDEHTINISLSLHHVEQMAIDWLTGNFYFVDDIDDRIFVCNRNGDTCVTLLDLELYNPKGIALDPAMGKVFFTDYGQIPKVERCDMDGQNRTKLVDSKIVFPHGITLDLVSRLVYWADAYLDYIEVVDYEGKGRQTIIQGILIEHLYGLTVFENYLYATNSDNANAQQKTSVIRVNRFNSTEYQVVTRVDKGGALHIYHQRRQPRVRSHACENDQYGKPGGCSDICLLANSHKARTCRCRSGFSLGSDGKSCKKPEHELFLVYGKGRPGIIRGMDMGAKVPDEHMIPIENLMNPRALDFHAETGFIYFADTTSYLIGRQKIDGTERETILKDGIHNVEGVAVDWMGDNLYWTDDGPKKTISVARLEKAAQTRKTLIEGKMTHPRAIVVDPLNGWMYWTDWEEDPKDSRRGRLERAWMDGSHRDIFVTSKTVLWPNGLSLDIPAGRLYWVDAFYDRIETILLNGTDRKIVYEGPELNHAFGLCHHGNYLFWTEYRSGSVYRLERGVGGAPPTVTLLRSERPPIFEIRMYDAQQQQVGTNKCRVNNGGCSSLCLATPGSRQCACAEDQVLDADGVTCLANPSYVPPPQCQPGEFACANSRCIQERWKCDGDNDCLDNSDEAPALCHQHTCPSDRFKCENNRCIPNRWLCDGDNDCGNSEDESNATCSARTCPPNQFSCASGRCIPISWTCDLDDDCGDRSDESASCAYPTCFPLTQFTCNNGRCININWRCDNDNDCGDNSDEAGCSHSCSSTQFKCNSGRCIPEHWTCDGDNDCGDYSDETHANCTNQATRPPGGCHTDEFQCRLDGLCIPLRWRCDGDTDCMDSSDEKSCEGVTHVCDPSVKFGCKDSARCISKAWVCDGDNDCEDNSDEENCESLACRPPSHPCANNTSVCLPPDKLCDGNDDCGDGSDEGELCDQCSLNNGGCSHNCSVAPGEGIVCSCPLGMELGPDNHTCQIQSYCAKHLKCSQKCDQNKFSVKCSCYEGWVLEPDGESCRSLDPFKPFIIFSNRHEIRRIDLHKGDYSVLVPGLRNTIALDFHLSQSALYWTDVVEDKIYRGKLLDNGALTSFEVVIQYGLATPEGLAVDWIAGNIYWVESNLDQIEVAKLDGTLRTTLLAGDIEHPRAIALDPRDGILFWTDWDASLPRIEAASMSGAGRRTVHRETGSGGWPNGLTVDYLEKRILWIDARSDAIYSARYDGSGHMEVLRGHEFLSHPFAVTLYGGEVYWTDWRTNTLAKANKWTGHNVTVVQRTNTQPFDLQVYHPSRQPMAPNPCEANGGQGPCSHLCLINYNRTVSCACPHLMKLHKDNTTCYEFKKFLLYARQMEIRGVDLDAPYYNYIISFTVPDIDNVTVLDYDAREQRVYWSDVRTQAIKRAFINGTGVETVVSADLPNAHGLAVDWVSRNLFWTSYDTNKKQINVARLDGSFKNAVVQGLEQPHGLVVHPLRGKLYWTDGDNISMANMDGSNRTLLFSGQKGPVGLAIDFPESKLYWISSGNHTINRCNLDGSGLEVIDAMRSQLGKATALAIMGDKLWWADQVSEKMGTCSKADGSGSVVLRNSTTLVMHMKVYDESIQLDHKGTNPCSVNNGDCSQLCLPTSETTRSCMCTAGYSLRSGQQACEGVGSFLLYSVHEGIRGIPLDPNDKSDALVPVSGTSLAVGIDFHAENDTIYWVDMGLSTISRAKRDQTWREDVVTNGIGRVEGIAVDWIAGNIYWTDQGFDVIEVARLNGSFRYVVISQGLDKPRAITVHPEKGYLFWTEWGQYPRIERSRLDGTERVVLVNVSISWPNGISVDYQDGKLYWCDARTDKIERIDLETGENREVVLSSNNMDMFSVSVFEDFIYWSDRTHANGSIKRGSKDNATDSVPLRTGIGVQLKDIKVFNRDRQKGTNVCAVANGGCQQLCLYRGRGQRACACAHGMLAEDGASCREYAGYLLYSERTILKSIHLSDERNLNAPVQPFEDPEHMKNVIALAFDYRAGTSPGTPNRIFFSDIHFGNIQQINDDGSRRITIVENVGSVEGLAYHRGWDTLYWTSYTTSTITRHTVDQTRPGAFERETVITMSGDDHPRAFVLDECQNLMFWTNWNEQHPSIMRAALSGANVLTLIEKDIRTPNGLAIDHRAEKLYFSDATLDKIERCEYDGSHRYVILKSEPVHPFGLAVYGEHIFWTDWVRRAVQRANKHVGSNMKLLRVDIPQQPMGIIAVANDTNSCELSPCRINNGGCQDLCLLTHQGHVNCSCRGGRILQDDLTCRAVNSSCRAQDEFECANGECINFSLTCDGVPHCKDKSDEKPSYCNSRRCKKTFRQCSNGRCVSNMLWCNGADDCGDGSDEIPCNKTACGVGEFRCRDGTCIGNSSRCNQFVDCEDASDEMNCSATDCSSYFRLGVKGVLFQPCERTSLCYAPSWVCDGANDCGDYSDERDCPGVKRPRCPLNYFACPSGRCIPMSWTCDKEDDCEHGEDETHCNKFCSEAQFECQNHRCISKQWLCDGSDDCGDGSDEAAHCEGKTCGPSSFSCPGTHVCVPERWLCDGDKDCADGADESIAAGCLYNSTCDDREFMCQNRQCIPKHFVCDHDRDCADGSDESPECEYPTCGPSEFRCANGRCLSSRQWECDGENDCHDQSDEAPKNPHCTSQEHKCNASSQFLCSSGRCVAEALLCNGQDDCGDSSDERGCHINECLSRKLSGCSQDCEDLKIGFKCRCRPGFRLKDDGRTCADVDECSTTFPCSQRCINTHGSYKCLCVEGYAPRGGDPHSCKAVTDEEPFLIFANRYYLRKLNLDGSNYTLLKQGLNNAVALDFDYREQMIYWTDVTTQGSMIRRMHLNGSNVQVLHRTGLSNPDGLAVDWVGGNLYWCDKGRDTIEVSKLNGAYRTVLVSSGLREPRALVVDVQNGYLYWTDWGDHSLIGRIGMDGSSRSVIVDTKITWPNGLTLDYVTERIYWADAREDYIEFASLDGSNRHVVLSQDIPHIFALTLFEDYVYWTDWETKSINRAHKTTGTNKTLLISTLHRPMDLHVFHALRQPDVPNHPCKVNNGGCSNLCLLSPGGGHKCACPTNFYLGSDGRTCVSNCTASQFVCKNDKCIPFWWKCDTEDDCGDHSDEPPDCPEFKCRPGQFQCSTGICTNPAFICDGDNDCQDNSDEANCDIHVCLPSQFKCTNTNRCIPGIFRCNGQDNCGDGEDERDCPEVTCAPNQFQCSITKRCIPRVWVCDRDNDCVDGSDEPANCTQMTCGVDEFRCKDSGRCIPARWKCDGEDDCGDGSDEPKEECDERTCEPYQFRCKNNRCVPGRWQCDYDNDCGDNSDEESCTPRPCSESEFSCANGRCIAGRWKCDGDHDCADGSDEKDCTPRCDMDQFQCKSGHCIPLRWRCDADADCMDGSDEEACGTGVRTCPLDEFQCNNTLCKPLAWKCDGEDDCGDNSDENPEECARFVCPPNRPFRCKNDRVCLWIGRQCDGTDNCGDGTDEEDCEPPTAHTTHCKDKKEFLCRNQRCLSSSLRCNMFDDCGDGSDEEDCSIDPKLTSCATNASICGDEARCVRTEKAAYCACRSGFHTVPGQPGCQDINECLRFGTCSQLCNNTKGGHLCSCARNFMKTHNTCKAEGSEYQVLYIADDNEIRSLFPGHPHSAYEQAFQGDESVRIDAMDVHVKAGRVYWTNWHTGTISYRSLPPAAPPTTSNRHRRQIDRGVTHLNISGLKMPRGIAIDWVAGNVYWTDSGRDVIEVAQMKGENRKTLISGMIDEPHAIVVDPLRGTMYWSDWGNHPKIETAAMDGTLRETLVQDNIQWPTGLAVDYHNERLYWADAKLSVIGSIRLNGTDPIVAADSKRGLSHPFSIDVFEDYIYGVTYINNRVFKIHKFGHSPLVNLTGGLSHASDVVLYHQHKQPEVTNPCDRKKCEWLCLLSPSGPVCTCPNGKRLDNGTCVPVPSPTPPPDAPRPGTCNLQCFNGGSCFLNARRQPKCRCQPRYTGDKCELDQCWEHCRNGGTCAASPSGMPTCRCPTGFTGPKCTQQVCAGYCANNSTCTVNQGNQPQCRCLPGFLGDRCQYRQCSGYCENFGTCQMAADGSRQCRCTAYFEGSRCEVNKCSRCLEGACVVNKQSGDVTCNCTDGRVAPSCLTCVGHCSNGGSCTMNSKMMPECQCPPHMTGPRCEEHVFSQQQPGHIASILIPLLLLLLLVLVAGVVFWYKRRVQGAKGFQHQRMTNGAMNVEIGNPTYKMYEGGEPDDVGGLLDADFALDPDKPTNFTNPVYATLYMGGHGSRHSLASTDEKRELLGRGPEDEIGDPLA
UniProt Q6P5S2: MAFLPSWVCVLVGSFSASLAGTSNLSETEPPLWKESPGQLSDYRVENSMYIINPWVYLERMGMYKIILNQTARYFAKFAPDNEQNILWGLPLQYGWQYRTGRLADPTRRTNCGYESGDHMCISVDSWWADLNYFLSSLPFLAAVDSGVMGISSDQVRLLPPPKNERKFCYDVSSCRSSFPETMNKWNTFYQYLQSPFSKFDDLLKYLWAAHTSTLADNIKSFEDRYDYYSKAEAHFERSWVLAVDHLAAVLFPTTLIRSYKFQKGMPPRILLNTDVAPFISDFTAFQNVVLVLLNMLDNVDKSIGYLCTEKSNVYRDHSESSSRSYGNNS
UniProt Q9Y546: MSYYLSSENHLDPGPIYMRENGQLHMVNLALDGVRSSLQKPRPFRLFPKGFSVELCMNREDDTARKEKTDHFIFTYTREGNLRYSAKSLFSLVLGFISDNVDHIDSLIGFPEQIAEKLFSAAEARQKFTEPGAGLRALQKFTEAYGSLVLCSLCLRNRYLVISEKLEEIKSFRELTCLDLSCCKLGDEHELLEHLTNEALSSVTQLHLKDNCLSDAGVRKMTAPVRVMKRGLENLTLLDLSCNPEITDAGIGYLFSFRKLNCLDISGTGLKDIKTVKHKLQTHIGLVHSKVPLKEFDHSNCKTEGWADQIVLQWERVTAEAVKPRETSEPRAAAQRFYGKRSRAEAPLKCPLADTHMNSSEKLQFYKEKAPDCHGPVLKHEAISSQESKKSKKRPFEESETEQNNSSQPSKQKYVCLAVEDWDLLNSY
UniProt P13473: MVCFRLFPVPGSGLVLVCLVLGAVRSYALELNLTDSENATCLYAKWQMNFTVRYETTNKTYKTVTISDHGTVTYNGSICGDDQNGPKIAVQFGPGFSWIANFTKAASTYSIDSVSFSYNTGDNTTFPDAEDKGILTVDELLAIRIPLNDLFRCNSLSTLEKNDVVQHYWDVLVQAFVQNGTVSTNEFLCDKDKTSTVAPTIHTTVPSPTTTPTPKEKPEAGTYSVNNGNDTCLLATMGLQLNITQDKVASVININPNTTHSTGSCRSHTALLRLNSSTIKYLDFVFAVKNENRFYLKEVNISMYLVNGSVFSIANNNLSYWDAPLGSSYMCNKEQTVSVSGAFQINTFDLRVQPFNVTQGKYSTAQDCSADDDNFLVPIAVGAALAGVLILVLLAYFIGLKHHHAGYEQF
UniProt Q15048: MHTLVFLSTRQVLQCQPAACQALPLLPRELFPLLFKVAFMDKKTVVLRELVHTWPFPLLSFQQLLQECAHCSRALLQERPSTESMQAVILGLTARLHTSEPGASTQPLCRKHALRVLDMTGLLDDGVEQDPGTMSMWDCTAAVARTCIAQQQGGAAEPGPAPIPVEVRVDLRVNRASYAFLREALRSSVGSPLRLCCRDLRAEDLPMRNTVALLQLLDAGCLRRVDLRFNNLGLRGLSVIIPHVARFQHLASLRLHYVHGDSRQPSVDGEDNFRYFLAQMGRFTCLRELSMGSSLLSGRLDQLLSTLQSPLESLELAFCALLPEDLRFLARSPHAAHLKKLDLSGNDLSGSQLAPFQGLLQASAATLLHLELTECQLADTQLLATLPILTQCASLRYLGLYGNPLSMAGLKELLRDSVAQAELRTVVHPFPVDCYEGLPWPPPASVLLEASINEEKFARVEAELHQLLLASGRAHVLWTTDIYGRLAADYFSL

log2 fold change, inactive:
LARP1B, A0A3B3ISF0 0.084
LRP5 (UniProt O75197) -0.07
LMO4 (UniProt P61968) 0.062
LIG4 (UniProt P49917) 0.082
LAPTM4B (UniProt Q86VI4) 0
LEPROT (UniProt O15243) 0.081
LRP1 (UniProt Q07954) -0.066
LATS1 (UniProt O95835) 0.072
LIG3 (UniProt P49916) 0.144
LEG1 (UniProt Q6P5S2) -0.151
L1TD1 (UniProt Q5T7N2) -0.199
LAMC1 (UniProt P11047) 0.071
LGALS3 (UniProt P17931) -0.037
KXD1 (UniProt Q9BQD3) -0.156
LLGL2 (UniProt Q6P1M3) -0.387
LGMN (UniProt Q99538) 0.24
LAMA5 (UniProt O15230) 0.197
LRRC42 (UniProt Q9Y546) -0.15
LAMP2 isoform 2 (UniProt P13473) 0.066
LAPTM5 (UniProt Q13571) -0.066

Compound: Cc1cc(Nc2cc(N3CCN(C)CC3)nc(Sc3ccc(NC(=O)C4CC4)cc3)n2)n[nH]1 [tozasertib]
Assay: as above
Outline: as §1

log2 fold change, inactive:
LRP5 (UniProt O75197) 0.241
LMO4 (UniProt P61968) -0.046
LRP1 (UniProt Q07954) -0.027
LRRC14 (UniProt Q15048) -0.045
LEPROTL1 isoform 2 (UniProt O95214) 0.066
LIMD2 (UniProt Q9BT23) -0.071
L1TD1 (UniProt Q5T7N2) -0.18
LHFPL2 (UniProt Q6ZUX7) -0.027
LCN2 isoform 2 (UniProt P80188) 0.111
LAMA5 (UniProt O15230) -0.19
LAMB2 (UniProt P55268) -0.132
LRRC42 (UniProt Q9Y546) -0.052
LAPTM5 (UniProt Q13571) 0.113
